# Laboratory results published in PubChem BioAssay AID1468 (National Center for Advancing Translational Sciences (NCATS), 2008).
# Protein sequences, listed by entry. Tags and fused reporters are not part of them. Residues count along the entry.
# UniProt P10636, 561-689 P618L limits assumed: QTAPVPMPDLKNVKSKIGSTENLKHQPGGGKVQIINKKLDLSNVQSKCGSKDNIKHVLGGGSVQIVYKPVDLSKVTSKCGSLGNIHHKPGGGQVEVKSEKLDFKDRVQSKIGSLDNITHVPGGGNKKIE
# The campaign covered roughly 280,000 compounds. About 1,100 (0.39%) were called active. All entries are inconclusive by the source's own rule. Clear calls are listed elsewhere. Calls follow the shape of the dose curve; as a rule, active = well fitted inhibition curve with a large enough effect; inconclusive = small, poorly fitted or top-dose-only effect, or effect the other way; inactive = flat fitted curve, though single readings scatter.
# Biological target: Microtubule-associated protein tau (Homo sapiens) (UniProt P10636)
# Assay: qHTS for Inhibitors of Tau Fibril Formation, Fluorescence Polarization; also: nearly all actives have a fitted effect of over 55% in size
# Conditions: K18 P301L tau heparin fibrillization, Alexa594 FP, 6 h
# Excerpt: NIH Molecular Libraries Probe Production Network [MLPCN]
# NIH Chemical Genomics Center [NCGC]
# Assay Provider: Carlo Ballatore, University of Pennsylvania
# The microtubule-associated protein tau is an abundant protein in the axons of neurons that stabilizes microtubules. With its ability to modulate microtubule dynamics, tau contributes directly or indirectly, to key structural and regulatory cellular functions. Particularly important is the influence tau exerts on axonal transport, which allows signaling molecules, trophic factors and other essential cellular constituents to travel along the axons. Under pathological conditions, tau becomes sequestered into insoluble aggregates called neurofibrillary tangles. This phenomenon is believed to have pathological consequences by promoting axonal transport deficits that ultimately lead to synaptic dysfunction and neuronal loss. […]
# For screening, 2 uL/well human K18 P301L (15 uM unlabeled and 0.24 uM Alexa 594-labeled tau final concentrations) in reagent buffer (100 mM sodium acetate pH 7) was dispensed into black solid 1536-well plates (Grenier) using a solenoid-based dispenser. […] After a 1 hr ambient incubation, the plates were read by an Envision (Perkin Elmer) to monitor Alexa 594 FP (555 nm excitation and 632 nm emission). […]
# Potency is read from the fitted curve at half-maximal effect.
row,Structure (SMILES),Potency
1,CCOc1ccc(C)cc1CN(CCCl)CCCl,inconclusive: 25.1 µM
2,CC(C)c1ccc(NC2CCN(C(=O)OC(C)(C)C)CC2)cc1,inconclusive: 0.398 µM
